Experimental findings from PMC7819943, “Rice protein-binding microarrays: a tool to detect cis-acting elements near promoter regions in rice” are described below.

Protein sequences, listed by entry. Tags and fused reporters are not part of them.
UniProt Q0JBA9, entry or part of it: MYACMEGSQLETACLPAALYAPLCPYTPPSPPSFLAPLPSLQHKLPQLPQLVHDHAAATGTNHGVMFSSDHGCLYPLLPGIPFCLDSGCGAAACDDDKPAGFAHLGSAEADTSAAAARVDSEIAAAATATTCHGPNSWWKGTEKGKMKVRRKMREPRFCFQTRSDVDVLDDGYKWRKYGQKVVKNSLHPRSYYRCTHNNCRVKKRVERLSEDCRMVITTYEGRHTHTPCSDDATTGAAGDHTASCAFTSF

The list shows a part of the results.

This test has as its target OsWRKY34 (Oryza sativa, UniProt Q0JBA9 1-250). Briefly: protein-binding microarray (RPBM); PBS, 2% BSA, 51.3 ng/ul salmon testes DNA, 50 uM zinc acetate, 200 nM TF, 25 C, 1 h; high values mean tight binding. The settings on record: protein: recombinant; tags: N-terminal polyhistidine and DsRed monomer fusion (pET32a); label: CyDye5-dUTP incorporated in the synthesized complementary strand; 3' TTTTT single-stranded linker to array surface; dsDNA, one strand shown. Put shortly: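 A custom Agilent array was converted to double-stranded form by primer extension with Cy5-dUTP and blocked with 2% BSA. Protein at 200 nM in PBS with 2% BSA, salmon testes DNA and 50 µM zinc acetate was applied for 1 h at 25 °C, followed by washing. The proteins were polyhistidine–DsRed N-terminal fusions of transcription factors, expressed in E. coli BL21-CodonPlus and Ni–NTA-purified. The binding signal is per-feature fluorescence intensity (arbitrary units) from an Axon 4000B scanner.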
On to “AAGCTTCACTCATATTCACTTTACTCACCACACATCACACCGGAGTCACCTAGTGCAG”, for which the binding signal is 9540 fluorescence intensity (a.u.).

Regarding “GGTTTCAAGGTATTCCACTACTTCCTCTATCCACAATTATCGGAGTCACCTAGTGCAG”, the binding signal is 8120 fluorescence intensity (a.u.). As for “TCATGTCTTGTGATCCTTTTCTTTTATATAGCTTTGTCTACGGAGTCACCTAGTGCAG”, the figure is 13000 fluorescence intensity (a.u.); as for “TTTTATGGTTTATTCTCTTTCTTTTTTGTGAATGGAAAATCGGAGTCACCTAGTGCAG”, 8530 fluorescence intensity (a.u.). As for “GATTTAATTATATAGTCCCACATTTCTCTTGGATTGTTTACGGAGTCACCTAGTGCAG”, the figure is 9180 fluorescence intensity (a.u.); as for “TTGGTTGTGTGTGTGCCGCCGCGAGCCCGTGACGGCGCCCCGGAGTCACCTAGTGCAG”, 9390 fluorescence intensity (a.u.); as for “CGTCCGGTCTTACCCTTGCGGTCGTTTTTTCCATAAATTTCGGAGTCACCTAGTGCAG”, 11700 fluorescence intensity (a.u.). Consider “GCGGTGGAGAGTGGTGGGAGGTTGGGGAGAAGGCGGCGGCCGGAGTCACCTAGTGCAG”, for which the binding signal is 14800 fluorescence intensity (a.u.). As to “TTCGTGGATGGGGTGGGCTCTTTCTCACTGTTATATTGTCCGGAGTCACCTAGTGCAG”, the binding signal is 27500 fluorescence intensity (a.u.). Then “AAGCCTTATTCAGTTTGTTTCCACTTTCAACCTTACTAAACGGAGTCACCTAGTGCAG”, with 12400 fluorescence intensity (a.u.); and “TCTTTACCTTTCTCTATATTGTTGCCGCCACATTAAATTGCGGAGTCACCTAGTGCAG”, with 8080 fluorescence intensity (a.u.).

For the sequence “TATTTCTTTCTCTTTTGTTTCAACGTACACTCTATACTATCGGAGTCACCTAGTGCAG”, the binding signal was 10800 fluorescence intensity (a.u.).

Regarding “GGGGTGGGCGTTCGGTCTGACCGAAAAATTCGGTCTCGGTCGGAGTCACCTAGTGCAG”, the binding signal was 9440 fluorescence intensity (a.u.).

With “AATTCCGGCCCAATAGTCACTTGTGTTGGCCACTTCGCCTCGGAGTCACCTAGTGCAG”, the binding signal was 9010 fluorescence intensity (a.u.). Then “GCGTCATCCGCGAGTAGTACTTCTCGATCACCTGCCTCGACGGAGTCACCTAGTGCAG”, with 9330 fluorescence intensity (a.u.). As for “ACAAAAGTTTATCGTAGACGTGCTAGCTTACTCATACGCCCGGAGTCACCTAGTGCAG”, the figure is 9550 fluorescence intensity (a.u.); as for “GCGCCGCCGTCCACCATGAGCTCCGGCTGCCTCCTCCGCGCGGAGTCACCTAGTGCAG”, 11800 fluorescence intensity (a.u.). As for “GGGTTGCAGTTGTTCGTAAGATACACGGTGTTACTTCGCACGGAGTCACCTAGTGCAG”, the figure is 10400 fluorescence intensity (a.u.); as for “CGATTTCTCTATCCGTTCCTTTTCTTTTTTCTTTTTTTTTCGGAGTCACCTAGTGCAG”, 14900 fluorescence intensity (a.u.). Take “CATTGACTCGGGAGCTAGGGTTTCTACGGGTTGTGGGCTACGGAGTCACCTAGTGCAG”: the binding signal is 8340 fluorescence intensity (a.u.). Then “TATTACCGTTCTTCCTTTTAGTCACTTTCCAAATTGTAAGCGGAGTCACCTAGTGCAG”, with 8250 fluorescence intensity (a.u.). On to “TCCACCCTAAAATTTTTCACCCTATCACATCGAACGTTTGCGGAGTCACCTAGTGCAG”, for which the binding signal is 8370 fluorescence intensity (a.u.). As for “GCCGGCCTGGGAGGCCGAAGGTTGGGGATGACAGGTGGGGCGGAGTCACCTAGTGCAG”, the figure is 8920 fluorescence intensity (a.u.); as for “CTTTTTTTTGATTTTTTTTATTTGTGGTTTGGATGTTTTTCGGAGTCACCTAGTGCAG”, 9280 fluorescence intensity (a.u.). As for “AATTGAGGAGTTTGTTTGTTCATACAGGTAGGTTGTTCCACGGAGTCACCTAGTGCAG”, the figure is 8910 fluorescence intensity (a.u.); as for “TTGTTTGGGGAGTCCATGGGCGGGGCCATCTACCTTCTCACGGAGTCACCTAGTGCAG”, 9260 fluorescence intensity (a.u.). As for “GCTGCTCCTTCACCGGCCTTTTCACTAGGCTTCGCACTTTCGGAGTCACCTAGTGCAG”, the figure is 9540 fluorescence intensity (a.u.). On to “GACAATTGGTCGGTTGATGTTGGGTTCCTTATTTGTACTACGGAGTCACCTAGTGCAG”, for which the binding signal is 9740 fluorescence intensity (a.u.). Then “TTTCATATAATGGTATCCTTTAACCATTTTCATTTACACACGGAGTCACCTAGTGCAG”, with 8210 fluorescence intensity (a.u.). Then “TTCTTGGATAGTTAGTTGCTCACCCGATCCTGTATCCATGCGGAGTCACCTAGTGCAG”, with 9620 fluorescence intensity (a.u.); and “CTGACTGACAGATCTCCCAGGCCGGTGTGTTCGATTTTTTCGGAGTCACCTAGTGCAG”, with 8820 fluorescence intensity (a.u.); and “GGGTGGGCGTGATGGAGTTGGGTCGGCCGGGGTGTCCGGTCGGAGTCACCTAGTGCAG”, with 14500 fluorescence intensity (a.u.). As for “CAGAACAAATGTGGTGGTTGTTTGCTCCGTCTACAAGCTCCGGAGTCACCTAGTGCAG”, the figure is 8100 fluorescence intensity (a.u.).

For the sequence “GATTTTGCTGTTCTTGCTATCTTCCCTGCTCTGCTCATCTCGGAGTCACCTAGTGCAG”, the binding signal was 11400 fluorescence intensity (a.u.).

On to “CCTTTTGCACACACACACACACACAAAACTTTATCTTTCTCGGAGTCACCTAGTGCAG”, for which the binding signal is 8690 fluorescence intensity (a.u.). With “CTCCTACTTTGCTTTTCTGCTGCACGCGTCGACCCTTTCTCGGAGTCACCTAGTGCAG”, the binding signal is 12400 fluorescence intensity (a.u.). “CTACATCCTCTTTCATGAACTCTCGGTACAGAATTAGTTACGGAGTCACCTAGTGCAG”: the binding signal was 8240 fluorescence intensity (a.u.). As for “CTACCTCTCCACTGCTCTGCTCATTTGCTTGGCTTTTGGCCGGAGTCACCTAGTGCAG”, the figure is 8720 fluorescence intensity (a.u.). As for “ATCCATCGCCGTCCTCTGCTGAAAATGCTACACTTGTCCCCGGAGTCACCTAGTGCAG”, the binding signal was 8890 fluorescence intensity (a.u.). As for “CGACCCAAACTTGCACACCTACTTCGCTAGCCTCGCCGCGCGGAGTCACCTAGTGCAG”, the figure is 9500 fluorescence intensity (a.u.); as for “CCATCCGCTCCACTTCGTTCAGTTCCCTGGGCTTCGGCTGCGGAGTCACCTAGTGCAG”, 8280 fluorescence intensity (a.u.); as for “GGGGATTTTTGTACGCTCACGGCATTTTTTTTGTCAGCGACGGAGTCACCTAGTGCAG”, 17500 fluorescence intensity (a.u.).

As for “CTAGTGTAATAAAATGTGGCCGTCTGTACTCAAAATTTTCCGGAGTCACCTAGTGCAG”, the binding signal was 9030 fluorescence intensity (a.u.). With “ACAGCAAATGTAGTTACAACCCAGTCCAATCTAAGGTCGTCGGAGTCACCTAGTGCAG”, the binding signal was 8250 fluorescence intensity (a.u.). Take “GAGTCCACTCCACCTCCATCCAGATCAGTGTATATAAACCCGGAGTCACCTAGTGCAG”: the binding signal is 9760 fluorescence intensity (a.u.).

Turning to “GGTATCTATTTCACTTCCTTTCTCTACTCCCATTGTTAACCGGAGTCACCTAGTGCAG”, the binding signal is 12500 fluorescence intensity (a.u.). As for “ATAAGGTCATTGGTTATGCTTCCAGCCCTGATGTTGTGGCCGGAGTCACCTAGTGCAG”, the figure is 9650 fluorescence intensity (a.u.). Then “CTCGTGTTTTTTTGCCCATAATTGACCACAGAACTCTTGACGGAGTCACCTAGTGCAG”, with 8080 fluorescence intensity (a.u.); and “TCCTACCAATGCAAGCGAACACCACATCCACACGTCGCCACGGAGTCACCTAGTGCAG”, with 9800 fluorescence intensity (a.u.); and “GTCACATTGAATACCTGCCGTGATGCTGCCTTTGTTGCATCGGAGTCACCTAGTGCAG”, with 10200 fluorescence intensity (a.u.). Then “GCTCCGTCCCCACATGAACCTCCGCCAACTTGCCACGAAACGGAGTCACCTAGTGCAG”, with 10200 fluorescence intensity (a.u.). For the sequence “TCGTTAACTTTTTAATAAACGTTTGACCTTTCGTCTTATTCGGAGTCACCTAGTGCAG”, the binding signal was 10200 fluorescence intensity (a.u.). Then “AAGTCATCGAACTCACAAACGGGCCGTCCCGTCCTGTATCCGGAGTCACCTAGTGCAG”, with 8700 fluorescence intensity (a.u.); and “TTGTTTCTGCAGACATGTGTAGCCATCAATCGATTCTTTGCGGAGTCACCTAGTGCAG”, with 8210 fluorescence intensity (a.u.).
